Measured values reported in PubChem BioAssay AID493014 (National Center for Advancing Translational Sciences (NCATS), 2011).
About 170 (0.05%) of roughly 340,000 compounds were called active. The shares of active, inactive and inconclusive entries below differ from those in the screen. Calls come from the whole dose curve; as a rule, active = well fitted inhibition curve with a large enough effect in the signal ratio, with a control signal flat (not every such curve was filed as active); inconclusive = small, poorly fitted or top-dose-only effect, or effect the other way, or a change in a side signal; inactive = flat fitted curve, though single readings scatter; the % refers to the signal ratio. Potencies of inconclusive entries are doubtful fits and often do not repeat.

Assay: qHTS Assay to Find Inhibitors of Chronic Active B-Cell Receptor Signaling;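 for activity change, negative = inhibition: plate controls were basal doxycycline-induced cells for no effect and cells given 10 µM MG132 for full effect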
Conditions: ABC-DLBCL IkBa-CBG/CBR reporter, luminescence ratio (green luciferase fused to IkBa over red control in TMD8 lymphoma cells), 4 h; activity change, negative = inhibition: at 46.1 µM (top of the series)
Method in brief: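 TMD8 human ABC-DLBCL cells with doxycycline-inducible IκBα–green luciferase fusion and unfused red luciferase, in 0.5% FBS medium; compounds up to 46 uM, 4 h at 37C. Green/red luminescence ratio, filter-overlap corrected, fitted to concentration-response curves.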
Potency is the fitted concentration of half-maximal effect.

Row | Structure (SMILES) | Potency | activity change, negative = inhibition
1 | COc1ccc(N2CC(NC(=O)C(=O)c3c[nH]c4ccccc34)CC2=O)cc1 (stereo not given) | inconclusive: 0.562 µM [falling, full curve, poor fit] | 
2 | O=[N+]([O-])CC(=Nc1ccc(F)cc1)N/N=C\c1oc(O)c2ccccc12 |  | inconclusive: -25.3%
3 | O=C(NCc1ccccn1)c1ccc2c(c1)N(Cc1ccccc1)CCS2 |  | inconclusive: 0%
4 | Cc1[nH]c2ccccc2c1N=Nc1ccc(F)cc1 |  | inconclusive: 10.7%
5 | O=C1C(NS(=O)(=O)c2cccs2)=C(N2CCN(c3cccc(C(F)(F)F)c3)CC2)C(=O)c2ccccc21 |  | inconclusive: 15.6%
6 | C=CCc1c(C)[nH]c2c(OC)cccc2c1=S |  | inactive
7 | Cc1[nH]c2ccccc2c1SCC(=O)NNC(=O)Nc1ccc(OC(F)(F)F)cc1 |  | inconclusive: 6.54%
8 | Cc1nn(-c2ccccc2)c(C)c1/C=N/NC(=O)c1cc(C2CC2)[nH]n1 |  | inactive
9 | O=C(Nc1cccc2cccnc12)c1ccc(Br)cc1Br |  | inconclusive: 7.63%
10 | O=[N+]([O-])c1ccc(CNc2cccc(Cl)c2)s1 |  | inactive
11 | CCC(=O)N1CCCc2cc(S(=O)(=O)N3CCN(c4ccccc4F)CC3)ccc21 |  | inconclusive: -1.78%
12 | Cc1csc(NC(=O)c2ccc(S(=O)(=O)N3CCN(C)CC3)cc2)n1 |  | inconclusive: 4.74%
13 | c1ccc(OCCn2c(-c3ccco3)nc3ccccc32)cc1 |  | inconclusive: -1.62%
14 | CCCCn1nnnc1SCC(=O)Nc1ccc(N(C)C)cc1 |  | inconclusive: 8.42%
15 | COc1ccc(C2OC(=O)CC2C(=O)NCc2ccccc2Cl)cc1OC (stereo not given) |  | inconclusive: 3.61%
16 | CC1=C(C(N)=O)C(c2cccnc2)n2nc(SCc3ccccc3Cl)nc2N1 (stereo not given) |  | inactive
17 | CCn1cnc2scc(-c3ccc(C)c(C)c3)c2c1=O |  | inconclusive: -0.134%
18 | COc1ccc(C=NNC(=O)c2ccccc2NS(=O)(=O)c2cccs2)cc1O |  | inactive
19 | COC(=O)c1cc2ccccc2n1Cc1ccc(Cl)nc1 |  | inconclusive: 1.8%
20 | S=c1[nH]nc(-c2cccs2)n1/N=C/c1cn(-c2ccccc2)nc1-c1cccs1 | inconclusive: 17.8 µM [falling, partial curve, poor fit] | 
21 | Cn1c(OCc2ccco2)nc2c1c(=O)n(Cc1ccc(Cl)c(Cl)c1)c(=O)n2C |  | inconclusive: -18%
22 | N#Cc1c(Nc2ccc(F)cc2)sc(C(=O)c2ccccc2)c1N |  | inconclusive: -0.0777%
23 | Cc1nc2cc(N3CCOCC3)c(NC(=O)C3CC3)cc2c(=O)n1Cc1ccccc1 |  | inconclusive: -0.216%
24 | Cc1cc(C)c(S(=O)(=O)/N=C2\C=C(Nc3ccc(C(=O)O)cc3)C(=O)c3ccccc32)c(C)c1 | inconclusive: 3.98 µM [falling, partial curve, poor fit] | 
25 | COc1ccc(-c2nnn(CC(=O)N(CC(=O)NC3CCCC3)c3cccc(C)c3)n2)cc1OC |  | inconclusive: -2.24%

Row | Structure (SMILES) | Potency | activity change, negative = inhibition
26 | c1ccc(-c2cc3nccc(-c4ccccn4)n3n2)cc1 | inconclusive: 29.1 µM [falling, single point] | 
27 | CCN(CC)CCN1C(=O)C(=O)/C(=C(/O)c2c(C)[nH]c(C(=O)OC)c2C)C1c1cccc(OC)c1 (stereo not given) |  | inconclusive: -12.2%
28 | CCOc1ccccc1CN1CCNC(=O)C1CC(=O)NCc1nccn1CC (stereo not given) |  | inactive
29 | [N-]=C=C1C(=S)NC(=O)[C@H]([n+]2ccccc2)[C@H]1c1ccc(Cl)cc1 |  | inconclusive: 16.8%
30 | C=CCO/N=C(/C)c1c(O)c(CC)c(-c2ccccc2)n(-c2ccccc2)c1=O | inconclusive: 29.1 µM [rising, partial curve, poor fit] | 
31 | O=c1oc2c(CN3CCCCC3)c(O)ccc2cc1-c1nc2ccccc2[nH]1 |  | inactive
32 | Cn1c(=O)c2c(ncn2CC(=O)OCC(=O)Nc2ccc(F)cc2Cl)n(C)c1=O |  | inconclusive: 0.048%
33 | Cn1nnc2cc(C(=O)N3CCC(c4ccccc4)C3)ccc21 (stereo not given) |  | inconclusive: 16.4%
34 | CCOc1cc(/C=N\Nc2ncc(F)c(N3CCOCC3)n2)ccc1Oc1nc(Cl)ncc1F |  | inconclusive: -14.9%
35 | COc1cc2c(cc1OC)-c1cc(N3CCCc4ccccc43)nc(=O)n1CC2 | inconclusive: 4.61 µM [falling, partial curve, poor fit] | 
36 | CN(C)S(=O)(=O)Oc1ccsc1C(=O)Nc1ccc(C(F)(F)F)cc1 |  | inconclusive: 0.839%
37 | CCNC(=S)NNC(=O)c1csc2ccccc12 | inconclusive: 11.2 µM [falling, partial curve, poor fit] | 
38 | Cc1cc(C)c2c(N)c(C(=O)NN3CC(=O)N(c4cccc(Cl)c4)CC3=O)sc2n1 | inconclusive: 14.1 µM [rising, partial curve, poor fit] | 
39 | COC(=O)COc1cccc(/C=N/NC(=O)CCSc2ccccc2)c1 | inconclusive: 35.5 µM [falling, single point] | 
40 | CC(C)c1ccc(-c2nc3c([nH]2)c(=O)n(C)c(=O)n3C)cc1 |  | inconclusive: 5.81%
41 | CC(=O)Nc1ccc(S(=O)(=O)N2C(=O)c3cccc4cccc2c34)cc1 |  | inactive
42 | CC(C)C(=O)N1CCC(c2nc(-c3ccc(S(=O)(=O)N4CCCC4)cc3)no2)CC1 |  | inactive
43 | Cc1cccc(NC(=S)NC(=O)c2cccs2)n1 | inconclusive: 25.1 µM [falling, single point] | 
44 | O=C(Nc1cccc(O)c1)C(=O)Nc1ccccn1 | inconclusive: 0.231 µM [rising, full curve, poor fit] | 
45 | CCNc1nc(CSc2ccccc2)nc2sc(C)c(C)c12 |  | inconclusive: 20.6%
46 | CCOC(=O)C1C(=O)NC(c2ccccc2)=NC1c1cccc(Br)c1 (stereo not given) |  | inconclusive: 14.8%
47 | O=C(NCCc1ccccc1)c1ccco1 | inconclusive: 29.1 µM [falling, single point] | 
48 | Cc1cccc(NC(=O)CCc2nc3sc4c(c3c(=O)[nH]2)CCCC4)n1 |  | inactive
49 | O=C(NCCOc1ccccc1Cl)C(=O)c1c[nH]c2ccccc12 | inconclusive: 14.1 µM [falling, partial curve, poor fit] | 
50 | CC(=O)C1=C(O)C(=O)N(CC(=O)O)C1c1ccccc1Cl (stereo not given) |  | inconclusive: 9.9%

Random excerpt: three compounds from above, in no set order.
Row | Structure (SMILES) | Potency | activity change, negative = inhibition
37 | CCNC(=S)NNC(=O)c1csc2ccccc12 | inconclusive: 11.2 µM [falling, partial curve, poor fit] | 
45 | CCNc1nc(CSc2ccccc2)nc2sc(C)c(C)c12 |  | inconclusive: 20.6%
41 | CC(=O)Nc1ccc(S(=O)(=O)N2C(=O)c3cccc4cccc2c34)cc1 |  | inactive
